# Reference: the supplement of paper PMC10338343
# ± gives the standard deviation. The list shows a part of the results, in another mix than the full data. The uncertainty is large for many entries. Some of the results follow.
# Tested on: MILI (PIWIL2) piRISC loaded with L1MC piRNA (26 nt);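 note: 1 nM active piRISC with 0.1 nM target library at 33 °C single turnover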
# Assay: pre-steady-state target cleavage rate (min^-1); higher = faster piRNA-guided slicing of the target
# Settings: guide: L1MC piRNA 5'p-UAACUAAAUACUAUGCAAGCUGUAGG; auxiliary factor: 500 nM mouse GTSF1
# In short: (§1)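 The pre-steady-state cleavage rate was derived from a burst-and-steady-state fit of Cleave-'n-Seq data. For these assays, 1 nM active affinity-purified piRISC loaded with a single synthetic guide was mixed with […] a transcribed, DNA-blocked target RNA library in HEPES–potassium acetate buffer at 33 °C, with or without 500 nM GTSF1 partner protein, for 0–8 or 0–960 min. Sequencing counts of uncleaved targets were normalised to depth and to weakly complementary targets, and k3 was capped at 0.0001 min^-1 after three trials were pooled.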
row,Sequence,pre-steady-state target cleavage rate
1,UCCUCCUACAGCUUAGCAUAGUAUUUAGUUA,0.314 ± 0.017
2,UCCUGGAUGUCGAACGAAAGUUUUUAGUUA,0.000179 ± 0.043
3,UCCUGCUCACAGCUUGCAUAGUAUUUAGUUA,0.351 ± 0.019
4,UCCUUCUACAGCUUGCAUAGUAUUUAGUUA,0.3 ± 0.015
5,UCCUCCUACGCUUGCAUAGUAUUUAGUUA,0.301 ± 0.013
6,UCCUGCAUCAGCUUGCAUAGUAUUUAGUUA,0.322 ± 0.021
7,UCCUCCUACAGCUUGCAUAGUAUAUUAGUUA,0.282 ± 0.019
8,UCCUGGAUGUCGAACGCUAGUAUUUAGUUA,0.000136 ± 0.019
9,UCCUCCUACAGCUUGCAUGGUAUUUAGUUA,0.413 ± 0.019

# Same assay, conditions: guide: L1MC piRNA 5'p-UAACUAAAUACUAUGCAAGCUGUAGG; auxiliary factor: none (no GTSF1)
row,Sequence,pre-steady-state target cleavage rate
1,UCCUGGUACAGCUUGCAUAGUUUUUACUUA,0.00154 ± 0.0055
2,UCCUGGAUGUCGAUGCAAAGAAUUUAGUUA,0.000292 ± 0.013
3,UCCUGCUACAGCUUGCAUAGUAUUUACUAA,0.00205 ± 0.0047
4,UCCUGGAUGUCGAACGUUUCAAUUUAGUUA,0.00013 ± 0.031
5,UCCUGGAACAGCUUGCAUUGAAUUUAGUUA,0.00224 ± 0.0032
6,UCCUGCUACAGCAACCAUAGUAUUUUCAAA,0.00051 ± 0.017
7,UCCUGGAUGUCGAACGUAAGUAUAUUGUUA,0.000207 ± 0.021
8,UCCUGGAUCAGCUUGCAUACUAUUUAGAUA,0.000787 ± 0.0075
9,UCCUGGAUGAGCUUGCAUAGAAUUUACUUA,0.000773 ± 0.0065
10,UCCUGGUACAGCUUGCAUACUAUUUAGUAA,0.00234 ± 0.0042
11,UCCUCCUACAGCUUGCAUAUAUUUAGUUA,0.00198 ± 0.0039
12,UCCUGCUACUGCUUGCAUAGUAUUUAGAAA,0.000779 ± 0.0064
13,UCCUGGAUCAGCUUGCAUAGUAUUUACAUA,0.00201 ± 0.0031
14,UCCUGGAACAGCUUGCAUAGUAUUAAGAAA,0.000897 ± 0.0067
15,UCCUGGAUCAGCUUGCAAUCUAUUUAGUUA,0.00127 ± 0.007
16,UCCUGGAUGAGCUUGCAUAGUAUUAUGUUA,0.0019 ± 0.0047

row,Sequence,pre-steady-state target cleavage rate
1,UCCUGGAACAGCUUGCAUAGUAUUUUGUAA,0.00166 ± 0.0048
2,UCCUCCUACAGCUUGCAUUGUAUUUAGAUA,0.00176 ± 0.0035
3,UCCUGGUACACCUUGCAUAGUAUUUACUUA,0.00121 ± 0.0088
4,UCCUGGAUGUGCUUGCAUAGUAUUUAGCUUA,0.00274 ± 0.0033
5,UCCUGCUACAGCUUGCAUAGAAUUUAGAAA,0.000878 ± 0.0063
6,UCCUGGAUGUCGUUGCAUAGAAUUAAGUUA,0.00084 ± 0.0066
7,UCCUGGUACACCUUGCAUAGAAUUUAGUUA,0.00126 ± 0.007
8,UCCUGGAUCAGCUUGCAUAGUUAAUAGUAA,0.002 ± 0.0039
9,UCCUGGAUGUCGAUGCAUACUAUUAAGUUA,0.000121 ± 0.039
10,UCCUGGAACAGCUUGCAUACUAUUUACUUA,0.00103 ± 0.0055
11,UCCUGGUACACCUUGGAUAGUAUUUAGUUA,0.00369 ± 0.0047
12,UCCUGGAUGUGCUUGCAUAGUAUUUAGAUUA,0.00141 ± 0.0061
13,UCCUCCUACACCUUGCAUACUAUUUAGUUA,0.00272 ± 0.0028
14,UCCUCCAUGAGCUUGCAUAGUAUUUAGAAA,0.00119 ± 0.0047
15,UCCUGGAUGUGCUUGCAUAGUAAAUAGUUA,0.00287 ± 0.0032

# Tested on: EfPiwi piRISC loaded with L1MC piRNA (26 nt)
# Assay: pre-steady-state target cleavage rate (min^-1); guide: L1MC piRNA 5'p-UAACUAAAUACUAUGCAAGCUGUAGG; MIWI and MILI are mouse PIWI proteins and EfPiwi is from a freshwater sponge; tags in brackets are library labels; higher = faster piRNA-guided slicing of the target
# Settings: auxiliary factor: 500 nM Ephydatia muelleri Gtsf1
# In short: as §1
row,Sequence,pre-steady-state target cleavage rate
1,UCCUGGUACAGCUUGCAUAGUUUUUACUUA,0.000499 ± 0.019
2,UCCUGGAUGUCGAUGCAAAGAAUUUAGUUA,0.000236 ± 0.01
3,UCCUCCUACAGCUUAGCAUAGUAUUUAGUUA,0.0919 ± 0.025
4,UCCUGCUACAGCUUGCAUAGUAUUUACUAA,0.0025 ± 0.0024
5,UCCUGCUCACAGCUUGCAUAGUAUUUAGUUA,0.072 ± 0.016
6,UCCUUCUACAGCUUGCAUAGUAUUUAGUUA,0.119 ± 0.035
7,UCCUGGAUGUCGAACGUUUCAAUUUAGUUA,0.000439 ± 0.013
8,UCCUGGAACAGCUUGCAUUGAAUUUAGUUA,0.000418 ± 0.0081
9,UCCUGCUACAGCAACCAUAGUAUUUUCAAA,0.000574 ± 0.0094
10,UCCUGGAUGUCGAACGUAAGUAUAUUGUUA,0.000339 ± 0.017
11,UCCUGGAUCAGCUUGCAUACUAUUUAGAUA,0.00158 ± 0.0036
12,UCCUGGAUGAGCUUGCAUAGAAUUUACUUA,0.000759 ± 0.0044
13,UCCUCCUACAGCUUGCAUAUAUUUAGUUA,0.00725 ± 0.0034
14,UCCUGCUACUGCUUGCAUAGUAUUUAGAAA,0.00545 ± 0.0023
15,UCCUCCUACGCUUGCAUAGUAUUUAGUUA,0.0821 ± 0.021
16,UCCUGCAUCAGCUUGCAUAGUAUUUAGUUA,0.0591 ± 0.011
17,UCCUGGAUCAGCUUGCAUAGUAUUUACAUA,0.00271 ± 0.0021

row,Sequence,pre-steady-state target cleavage rate
1,UCCUGGAACAGCUUGCAUAGUAUUAAGAAA,0.00313 ± 0.0019
2,UCCUGGAUCAGCUUGCAAUCUAUUUAGUUA,0.000885 ± 0.0057
3,UCCUCCUACAGCUUGCAUAGUAUAUUAGUUA,0.0567 ± 0.019
4,UCCUGGAUGAGCUUGCAUAGUAUUAUGUUA,0.000918 ± 0.0061
5,UCCUGGAACAGCUUGCAUAGUAUUUUGUAA,0.00148 ± 0.0043
6,UCCUCCUACAGCUUGCAUUGUAUUUAGAUA,0.00539 ± 0.0029
7,UCCUGGUACACCUUGCAUAGUAUUUACUUA,0.000793 ± 0.0064
8,UCCUGGAUGUCGUUGCAUAGAAUUAAGUUA,0.000692 ± 0.0083
9,UCCUGGUACACCUUGCAUAGAAUUUAGUUA,0.00141 ± 0.0036
10,UCCUGGAUCAGCUUGCAUAGUUAAUAGUAA,0.000328 ± 0.016
11,UCCUGGAUGUCGAACGCUAGUAUUUAGUUA,0.000623 ± 0.0074
12,UCCUGGAUGUCGAUGCAUACUAUUAAGUUA,< 0.0001
13,UCCUCCUACAGCUUGCAUGGUAUUUAGUUA,0.0681 ± 0.02
14,UCCUGGAACAGCUUGCAUACUAUUUACUUA,0.00304 ± 0.0038
15,UCCUGGUACACCUUGGAUAGUAUUUAGUUA,0.0012 ± 0.0035
16,UCCUGGAUGUGCUUGCAUAGUAAAUAGUUA,0.00273 ± 0.0051
